Experimental data from PubChem BioAssay AID504467 (National Center for Advancing Translational Sciences (NCATS), 2011).
The campaign covered roughly 330,000 compounds. About 7,700 (2.3%) were called active. Inconclusive results, whose numbers are uncertain, are shown with a selection of clear calls. The call rests on the fitted dose curve; in most records, active means well fitted inhibition curve with a large enough effect; inconclusive means small, poorly fitted or top-dose-only effect, or effect the other way; inactive means flat fitted curve, though single readings scatter. Potencies beside an inconclusive call are fits to weak or partial responses and may not hold up.
On the % scale 0 is the no-effect control and ±100 the full control effect; potency means the concentration at half of the fitted maximal effect.

Test: qHTS screen for small molecules that inhibit ELG1-dependent DNA repair in human embryonic kidney (HEK293T) cells expressing luciferase-tagged ELG1; further: nearly all actives have a fitted effect of over 55% in size
Conditions: HEK293T ELG1-luciferase reporter, luminescence, 16 h, DNA damage induced by 5-fluorouridine; activity change, negative = inhibition: at 46.1 µM (top of the series)
Summary of the method: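 Reporter activity after DNA damage by 5-fluorouridine is monitored. Compound-treated cells incubate 16 hr at 37 °C, then ONE-Glo is added for 30 min before luminescence reading.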
For `Cc1cccc(CSC(=N)N)c1`, the Potency was inconclusive: 6.51 µM [inhibitor, partial curve, poor fit].
For `CCc1nc(C)cn1S(=O)(=O)c1ccc([N+](=O)[O-])cc1`, the “activity change, negative = inhibition” value was inactive: 6.45%.
In the case of `CN(C(=O)c1ccc(OC2CCN(S(=O)(=O)N(C)C)CC2)cc1)C1CCCCC1`, the Potency is reported as inconclusive: 16.4 µM [inhibitor, single point].
With `CCNc1nc(NCC)nc(OCCOC(=O)c2ccccc2)n1` the “activity change, negative = inhibition” value was inactive: 2.3%.
With `O=C(O)c1cc(-c2ccc3ccccc3n2)nc2ccccc12` the Potency was inconclusive: 5.8 µM [activator, full curve].
In the case of `O=C(CCNc1cccc(F)c1)c1cccc([N+](=O)[O-])c1`, the “activity change, negative = inhibition” value is reported as inactive: -2.06%.
For `Cc1cc(-n2cnc(-c3cn[nH]c3C)n2)no1`, the Potency was inconclusive: 20.6 µM [activator, partial curve, poor fit].
In the case of `C=C1C(=O)O[C@@H]2[C@H]1CC[C@H](C)[C@]1(O)CCC(=O)[C@@]21C`, the “activity change, negative = inhibition” value is reported as inactive: 4.85%.
For `O=C(NCCc1cn2ccccc2n1)c1cc(COc2ccc3ncccc3c2)on1`, the Potency was active: 8.2 µM.
In the case of `Cc1cc(/C=C2\SC(=O)N(C)C2=O)c(C)n1-c1cccc(C(=O)O)c1`, the Potency is reported as inconclusive: 16.4 µM [activator, partial curve].
For `Cc1cc(NC(=O)CSCC(=O)Nc2nc3ccc(F)cc3s2)no1`, the Potency was inconclusive: 22.4 µM [activator, partial curve, poor fit].
For `CC1CCCCN1C(=O)CSc1nc2ncccc2[nH]1` (stereo unspecified), the Potency was inconclusive: 29.1 µM [activator, partial curve, poor fit].
With `CCc1ccc(C(=O)/C=C/NCc2ccc(F)cc2)cc1` the Potency was inconclusive: 16.4 µM [activator, single point].
With `CCOc1cccc(C(=O)Nc2ccc(N3CCCC3)cc2)c1` the Potency was inconclusive: 14.6 µM [activator, single point].
In the case of `CCN(CC(=O)Nc1ccc2c(c1)OCO2)Cc1nc2ccccc2c(=O)[nH]1`, the Potency is reported as inconclusive: 12.6 µM [inhibitor, single point].
In the case of `C=CCn1cc(C(=O)OCC)c(=O)c2cc(F)c(F)cc21`, the “activity change, negative = inhibition” value is reported as inactive: -0.515%.
With `CC(=O)N1CCc2c(sc(NC(=O)C3CC3)c2-c2nc3ccccc3s2)C1` the Potency was inconclusive: 10.3 µM [inhibitor, partial curve].
In the case of `COc1cccc(NC(=O)CSc2nnnn2C(C)C)c1`, the Potency is reported as inconclusive: 13 µM [activator, partial curve, poor fit].
With `COc1ccc(C2=NN(C(=O)COc3ncnc4ccccc34)C(c3ccco3)C2)cc1` (stereo unspecified) the Potency was active: 4.11 µM.
In the case of `COc1ccc(CCN2C(=O)C(Oc3ccccc3)C2c2ccc3c(c2)OCO3)cc1` (stereo unspecified), the Potency is reported as inconclusive: 8.2 µM [inhibitor, partial curve].
For `Cc1ccc(-c2cc(N)n(Cc3ccc(Cl)cc3)n2)cc1`, the Potency was inconclusive: 29.1 µM [activator, single point].
In the case of `COc1ccccc1NC(NC(=O)c1cccnc1)C(Cl)(Cl)Cl` (stereo unspecified), the “activity change, negative = inhibition” value is reported as inactive: -11.1%.
For `COc1cc(NC(=S)N2CCN(C(=O)c3ccco3)CC2)c(OC)cc1Cl`, the “activity change, negative = inhibition” value was inactive: 0.875%.
With `C=CCc1cccc(CNc2nc3ccccc3n2C)c1O` the “activity change, negative = inhibition” value was inactive: 7.45%.
For `O=C(COc1cc2oc(=O)c3c(c2cc1Cl)CCC3)N1C[C@H]2C[C@@H](C1)c1cccc(=O)n1C2`, the Potency was inconclusive: 0.058 µM [activator, partial curve, poor fit].
With `CN(C)S(=O)(=O)c1cccc(NC(=O)/C=C/c2ccccc2[N+](=O)[O-])c1` the Potency was inconclusive: 23.1 µM [inhibitor, single point].
With `CNc1nc(N/N=C/c2cc3c(cc2[N+](=O)[O-])OCO3)nc(Nc2ccccc2)n1` the Potency was inconclusive: 20.6 µM [inhibitor, partial curve, poor fit].
In the case of `COc1ccc(-c2nnc(SCC(=O)N3CCCCC3)o2)cc1`, the Potency is reported as inconclusive: 16.4 µM [activator, partial curve].
In the case of `COc1ccc(-c2nn(-c3ccccc3)cc2C(=O)N2CCN(S(=O)(=O)c3ccccc3C#N)CC2)cc1`, the Potency is reported as inconclusive: 25.9 µM [inhibitor, partial curve, poor fit].
With `CCCCn1c(CCc2ccccc2)nc2cc3[nH]c(=O)c(C(C)C)nc3cc21` the Potency was inconclusive: 25.9 µM [inhibitor, single point].
In the case of `CN(C)c1ccc(NC(=O)c2cccc(C(=O)Nc3ccc(N(C)C)cc3)n2)cc1`, the Potency is reported as inconclusive: 29.1 µM [inhibitor, single point].
In the case of `O=C(N/N=C/c1ccc(O)c(O)c1)c1cccc(S(=O)(=O)N2CCCCC2)c1`, the “activity change, negative = inhibition” value is reported as inactive: 6.58%.
With `COc1ccc(NC(=O)CN(C)C(=O)c2ccc(NS(=O)(=O)c3ccc(F)cc3)cc2)cc1` the “activity change, negative = inhibition” value was inactive: -3.04%.
For `COc1cccc(-c2nc(-c3cccs3)no2)c1`, the Potency was inconclusive: 2.06 µM [activator, full curve].
With `COc1cc(/C=C2\SC(=O)N(Cc3ccc(F)cc3)C2=O)cc([N+](=O)[O-])c1O` the Potency was inconclusive: 29.1 µM [inhibitor, single point].
With `Oc1ccc(O)c(Cc2nc3ccccc3s2)c1` the Potency was inconclusive: 6.51 µM [inhibitor, partial curve, poor fit].
With `O=C(CNC(=O)c1ccc(Cl)cc1)NC1CCCCC1` the “activity change, negative = inhibition” value was inactive: 5.4%.
With `Cn1c(Cc2ccccc2)nnc1SCC(=O)NCCc1ccccc1` the “activity change, negative = inhibition” value was inactive: 0.282%.
For `COC(C(=O)Nc1ccc(S(=O)(=O)Nc2cccc3ccccc23)cc1)c1ccccc1` (stereo unspecified), the “activity change, negative = inhibition” value was inactive: -16.7%.
With `Cc1occc1-c1nnc(SCC(=O)Nc2ccccn2)o1` the Potency was inconclusive: 16.4 µM [activator, partial curve].
In the case of `O=S(=O)(c1ccc(Cl)cc1)N1CCN(c2nc(-c3cccs3)nc3ccccc23)CC1`, the “activity change, negative = inhibition” value is reported as inactive: -5.85%.
For `Cc1ccc(-c2cc(C(=O)NN3CCOCC3)c3cc(Br)ccc3n2)o1`, the Potency was inconclusive: 29.1 µM [inhibitor, partial curve, poor fit].
In the case of `Cc1ccc2nc(N(CCCN(C)C)C(=O)c3ccc(S(=O)(=O)N4CCOCC4)cc3)sc2c1`, the Potency is reported as inconclusive: 11.6 µM [activator, single point].
In the case of `CC(C)N(Cc1ccccc1)S(=O)(=O)c1ccc2c(c1)NC(=O)CO2`, the “activity change, negative = inhibition” value is reported as inactive: 16.9%.
In the case of `C=CCNC(=S)Nc1cc(S(=O)(=O)N2CCOCC2)ccc1-n1cncn1`, the Potency is reported as inconclusive: 18.4 µM [activator, partial curve, poor fit].
For `COc1ccc(CNc2oc(COc3ccccc3)nc2C#N)cc1`, the Potency was inconclusive: 16.4 µM [activator, single point].
With `O=C(Nc1cccc2ccccc12)C1CCCC1` the “activity change, negative = inhibition” value was inactive: 7.57%.
For `O=C(COc1ccc(C(=O)c2ccc(F)cc2)cc1)Nc1cccc(S(=O)(=O)N2CCOCC2)c1`, the Potency was active: 23.1 µM.
With `Cc1ccc(C(=O)OCC(=O)c2ccc(Cl)s2)s1` the Potency was inconclusive: 20.6 µM [activator, single point].
For `O=C(NCCc1cnc[nH]1)c1ccc(-c2ccccc2)cc1`, the Potency was inconclusive: 20.6 µM [activator, single point].
For `O=C1C(C=NCc2ccco2)=C(O)c2ccccc21`, the Potency was inconclusive: 5.8 µM [activator, partial curve].
With `CC(C)(C)c1ccc(-c2nc3[nH]c(=O)cc(NC(=O)c4ccco4)n3n2)cc1` the Potency was inconclusive: 8.2 µM [activator, partial curve].
For `COc1cc(OC)cc(C(=O)NCCCCCCNC(=O)c2cc(OC)cc(OC)c2)c1`, the Potency was inconclusive: 25.9 µM [inhibitor, single point].
In the case of `Clc1ccc(CSc2nnc(-c3ccncc3)o2)cc1`, the Potency is reported as inconclusive: 5.17 µM [inhibitor, partial curve, poor fit].
For `CN1c2ccc(Cl)cc2C(=O)NC1c1ccc([N+](=O)[O-])s1` (stereo unspecified), the Potency was active: 20.6 µM.
With `CC(C)(C)[C@@H]1COC(=O)[C@H](Cc2ccc(F)cc2)C/C=C\C[C@@H](CC(=O)N(CCO)Cc2ccccc2)C(=O)N1` the “activity change, negative = inhibition” value was inactive: -22.8%.
With `NC(=O)CC(NC(=O)Cc1ccc(Cl)cc1)c1ccc(NCc2ccccc2)c([N+](=O)[O-])c1` (stereo unspecified) the “activity change, negative = inhibition” value was inactive: -3.72%.
With `O=c1cc(CN2CCOCC2)c2cc(Cl)ccc2o1` the Potency was inconclusive: 9.2 µM [activator, partial curve, poor fit].
With `CN1CCN(C(=O)c2cc(-c3ccccc3)on2)CC1` the Potency was inconclusive: 20.6 µM [activator, partial curve].
In the case of `CN(NS(C)(=O)=O)c1ncc(C(F)(F)F)cc1Cl`, the “activity change, negative = inhibition” value is reported as inactive: 15.3%.
In the case of `C[C@H](CO)N1C[C@H](C)[C@@H](CN(C)C(=O)NC2CCCCC2)Oc2c(cccc2N(C)C)C1=O`, the “activity change, negative = inhibition” value is reported as inactive: 17.3%.
For `Cc1cc(/C=C2\SC(=O)NC2=O)c(C)n1-c1ccc(N(C)C)cc1`, the “activity change, negative = inhibition” value was inactive: 5.85%.
With `COC(=O)C(NC(=O)c1ccc(OC)cc1)(Nc1ncc(S(=O)(=O)c2ccc([N+](=O)[O-])cc2)s1)C(F)(F)F` (stereo unspecified) the Potency was inconclusive: 10.3 µM [inhibitor, single point].
For `CCC(=O)NC(C)c1cc(Cl)c2cccnc2c1O` (stereo unspecified), the Potency was inconclusive: 32.6 µM [inhibitor, single point].
In the case of `Cn1c(=O)c2c(ncn2CC(=O)Nc2cc(S(=O)(=O)N3CCCCC3)ccc2O)n(C)c1=O`, the “activity change, negative = inhibition” value is reported as inactive: 1.21%.
In the case of `CCc1cc2c(N3CCN(c4nnc(CC)s4)CC3)ncnc2s1`, the Potency is reported as active: 18.4 µM.
For `O=C(Oc1ccc(N(Cc2cccs2)C2=NS(=O)(=O)c3ccccc32)cc1)c1ccccc1Cl`, the “activity change, negative = inhibition” value was inactive: -26.6%.
For `COc1ccc(N2CCN(CCC(N)=O)CC2)cc1`, the “activity change, negative = inhibition” value was inactive: 4.99%.
In the case of `CCN(CC)CCCn1c(=S)[nH]c2ccc(Cl)cc2c1=O`, the “activity change, negative = inhibition” value is reported as inactive: 3.77%.
For `O=C(NNc1ccccc1Br)C(O)(c1cccc(C(F)(F)F)c1)c1cccc(C(F)(F)F)c1`, the Potency was inconclusive: 20.6 µM [inhibitor, partial curve].
In the case of `COc1cccc(CC(=O)NCC2COc3ccccc3O2)c1OC` (stereo unspecified), the Potency is reported as inconclusive: 23.1 µM [inhibitor, partial curve, poor fit].
